Compound in the assay: CN[C@@H]1C[C@H]2O[C@@](C)([C@@H]1OC)n1c3ccccc3c3c4c(c5c6ccccc6n2c5c31)C(=O)NC4 [staurosporine]
Description: log2 fold change of tryptic peptide abundance, ligand vs vehicle (limited proteolysis) (log2 ratio); higher = more trypsin-susceptible (destabilized). Conditions: ligand concentration: 20 uM; sample: mouse liver crude lysate; replicate design: treated separately.

Amino acid sequences for entries named in this document (tags omitted). A change or cut given only in a name is not applied to a line headed by its entry.
UniProt Q8VC49: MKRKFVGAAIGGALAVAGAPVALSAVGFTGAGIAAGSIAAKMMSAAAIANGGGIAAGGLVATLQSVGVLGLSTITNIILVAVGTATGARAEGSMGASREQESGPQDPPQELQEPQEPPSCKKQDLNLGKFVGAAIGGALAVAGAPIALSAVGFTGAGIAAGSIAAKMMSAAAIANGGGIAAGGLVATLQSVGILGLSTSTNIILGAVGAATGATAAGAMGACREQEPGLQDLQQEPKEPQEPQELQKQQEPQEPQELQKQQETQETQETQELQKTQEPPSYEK
UniProt Q8R2U6: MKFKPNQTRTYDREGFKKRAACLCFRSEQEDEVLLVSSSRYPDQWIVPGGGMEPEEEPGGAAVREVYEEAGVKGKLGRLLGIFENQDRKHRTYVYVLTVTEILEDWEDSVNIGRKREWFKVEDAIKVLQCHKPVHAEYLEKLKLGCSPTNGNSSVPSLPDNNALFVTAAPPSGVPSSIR
UniProt Q8VE99: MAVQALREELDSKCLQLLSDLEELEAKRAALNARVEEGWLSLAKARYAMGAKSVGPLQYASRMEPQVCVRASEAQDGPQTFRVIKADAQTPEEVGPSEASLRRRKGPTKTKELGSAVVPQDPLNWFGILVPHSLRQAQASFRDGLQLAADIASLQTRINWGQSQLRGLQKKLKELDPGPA
UniProt Q8R464: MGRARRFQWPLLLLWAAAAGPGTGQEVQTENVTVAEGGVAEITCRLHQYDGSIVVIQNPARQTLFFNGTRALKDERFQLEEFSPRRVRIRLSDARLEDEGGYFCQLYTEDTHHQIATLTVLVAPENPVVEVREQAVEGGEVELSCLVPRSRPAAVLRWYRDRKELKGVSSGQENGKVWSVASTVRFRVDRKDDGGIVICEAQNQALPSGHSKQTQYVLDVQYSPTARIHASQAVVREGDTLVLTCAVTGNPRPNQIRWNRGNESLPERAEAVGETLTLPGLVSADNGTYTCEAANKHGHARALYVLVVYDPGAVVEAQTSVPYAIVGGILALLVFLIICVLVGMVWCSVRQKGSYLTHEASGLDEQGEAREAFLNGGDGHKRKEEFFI
UniProt Q8VC74: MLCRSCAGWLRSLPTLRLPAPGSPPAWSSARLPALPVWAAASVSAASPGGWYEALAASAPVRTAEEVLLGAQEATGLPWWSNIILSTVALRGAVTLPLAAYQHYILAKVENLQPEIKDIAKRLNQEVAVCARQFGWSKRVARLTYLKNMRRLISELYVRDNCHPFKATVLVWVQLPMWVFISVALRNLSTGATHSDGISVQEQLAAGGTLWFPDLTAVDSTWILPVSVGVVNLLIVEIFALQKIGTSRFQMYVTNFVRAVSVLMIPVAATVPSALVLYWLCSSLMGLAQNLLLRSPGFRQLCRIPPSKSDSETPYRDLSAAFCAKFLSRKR
UniProt Q8VDY9: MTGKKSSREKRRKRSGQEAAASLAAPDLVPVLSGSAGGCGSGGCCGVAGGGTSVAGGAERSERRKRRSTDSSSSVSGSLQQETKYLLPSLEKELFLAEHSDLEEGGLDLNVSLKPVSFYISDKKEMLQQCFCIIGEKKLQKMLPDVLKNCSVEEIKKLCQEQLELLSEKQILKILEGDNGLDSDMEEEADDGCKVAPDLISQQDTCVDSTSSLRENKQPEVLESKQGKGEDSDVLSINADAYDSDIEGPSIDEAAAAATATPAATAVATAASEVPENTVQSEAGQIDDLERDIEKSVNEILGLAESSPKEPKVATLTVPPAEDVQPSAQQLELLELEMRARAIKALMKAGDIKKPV
UniProt Q8R3N6: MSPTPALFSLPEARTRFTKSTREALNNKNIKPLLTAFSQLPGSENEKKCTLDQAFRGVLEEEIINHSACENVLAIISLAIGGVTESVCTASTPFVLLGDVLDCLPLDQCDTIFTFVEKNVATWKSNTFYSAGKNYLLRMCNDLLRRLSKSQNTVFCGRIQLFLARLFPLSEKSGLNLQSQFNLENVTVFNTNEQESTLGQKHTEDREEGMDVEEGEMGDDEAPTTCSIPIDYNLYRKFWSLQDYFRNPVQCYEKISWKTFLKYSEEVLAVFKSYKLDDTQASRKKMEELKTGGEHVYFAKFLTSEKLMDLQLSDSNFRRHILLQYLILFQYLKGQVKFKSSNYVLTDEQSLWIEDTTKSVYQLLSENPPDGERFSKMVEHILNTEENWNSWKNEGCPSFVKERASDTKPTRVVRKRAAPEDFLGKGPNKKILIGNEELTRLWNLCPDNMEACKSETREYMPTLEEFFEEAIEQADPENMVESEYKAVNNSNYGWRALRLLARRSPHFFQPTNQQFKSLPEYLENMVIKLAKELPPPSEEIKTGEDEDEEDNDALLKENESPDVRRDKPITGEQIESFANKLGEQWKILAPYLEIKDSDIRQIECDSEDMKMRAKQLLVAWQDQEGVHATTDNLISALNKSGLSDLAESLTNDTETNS
UniProt Q8VCE4: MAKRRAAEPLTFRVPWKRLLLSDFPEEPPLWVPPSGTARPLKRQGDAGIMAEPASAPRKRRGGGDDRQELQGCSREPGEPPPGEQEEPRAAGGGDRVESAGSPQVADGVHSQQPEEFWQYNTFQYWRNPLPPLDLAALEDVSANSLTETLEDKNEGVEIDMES
UniProt Q8VEG0: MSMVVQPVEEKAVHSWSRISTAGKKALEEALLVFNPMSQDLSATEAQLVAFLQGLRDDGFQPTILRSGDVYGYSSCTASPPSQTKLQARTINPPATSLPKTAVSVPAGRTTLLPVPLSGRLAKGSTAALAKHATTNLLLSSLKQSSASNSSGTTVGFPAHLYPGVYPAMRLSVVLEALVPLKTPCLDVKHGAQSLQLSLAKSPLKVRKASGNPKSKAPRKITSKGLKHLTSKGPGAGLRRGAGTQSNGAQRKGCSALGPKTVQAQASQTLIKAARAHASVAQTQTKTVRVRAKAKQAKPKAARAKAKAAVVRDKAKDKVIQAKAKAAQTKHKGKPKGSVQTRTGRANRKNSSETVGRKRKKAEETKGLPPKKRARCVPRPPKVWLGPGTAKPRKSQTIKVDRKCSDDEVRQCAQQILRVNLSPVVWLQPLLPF
UniProt Q8VDV3: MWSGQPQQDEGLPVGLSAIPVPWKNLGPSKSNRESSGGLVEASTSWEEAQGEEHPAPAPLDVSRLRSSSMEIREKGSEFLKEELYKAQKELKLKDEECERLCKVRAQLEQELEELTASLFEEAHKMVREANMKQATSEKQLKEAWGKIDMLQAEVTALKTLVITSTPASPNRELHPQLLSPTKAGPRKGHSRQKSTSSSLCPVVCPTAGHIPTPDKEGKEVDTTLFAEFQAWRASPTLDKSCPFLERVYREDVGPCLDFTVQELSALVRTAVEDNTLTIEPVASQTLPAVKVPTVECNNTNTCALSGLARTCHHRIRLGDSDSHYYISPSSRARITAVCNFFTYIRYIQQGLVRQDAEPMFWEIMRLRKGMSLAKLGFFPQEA
UniProt Q8R5A3: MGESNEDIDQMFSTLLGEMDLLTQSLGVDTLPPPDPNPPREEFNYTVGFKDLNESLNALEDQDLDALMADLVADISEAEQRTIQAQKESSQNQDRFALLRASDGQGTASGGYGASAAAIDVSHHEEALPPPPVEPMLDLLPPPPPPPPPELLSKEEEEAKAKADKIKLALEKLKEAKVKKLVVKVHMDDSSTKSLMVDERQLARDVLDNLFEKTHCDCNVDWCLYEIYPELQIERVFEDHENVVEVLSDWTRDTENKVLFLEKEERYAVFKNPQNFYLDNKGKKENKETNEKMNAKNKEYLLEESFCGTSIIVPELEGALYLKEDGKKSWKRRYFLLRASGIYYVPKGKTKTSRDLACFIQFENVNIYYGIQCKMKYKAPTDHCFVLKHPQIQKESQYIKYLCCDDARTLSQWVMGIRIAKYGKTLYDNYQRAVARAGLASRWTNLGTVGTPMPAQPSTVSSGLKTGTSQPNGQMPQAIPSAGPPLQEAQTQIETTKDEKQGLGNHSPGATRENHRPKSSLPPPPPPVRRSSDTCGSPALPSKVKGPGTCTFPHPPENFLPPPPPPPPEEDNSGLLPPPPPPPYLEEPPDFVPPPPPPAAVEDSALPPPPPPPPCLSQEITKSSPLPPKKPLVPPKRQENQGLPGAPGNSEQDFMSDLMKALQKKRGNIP
UniProt Q8R4I1: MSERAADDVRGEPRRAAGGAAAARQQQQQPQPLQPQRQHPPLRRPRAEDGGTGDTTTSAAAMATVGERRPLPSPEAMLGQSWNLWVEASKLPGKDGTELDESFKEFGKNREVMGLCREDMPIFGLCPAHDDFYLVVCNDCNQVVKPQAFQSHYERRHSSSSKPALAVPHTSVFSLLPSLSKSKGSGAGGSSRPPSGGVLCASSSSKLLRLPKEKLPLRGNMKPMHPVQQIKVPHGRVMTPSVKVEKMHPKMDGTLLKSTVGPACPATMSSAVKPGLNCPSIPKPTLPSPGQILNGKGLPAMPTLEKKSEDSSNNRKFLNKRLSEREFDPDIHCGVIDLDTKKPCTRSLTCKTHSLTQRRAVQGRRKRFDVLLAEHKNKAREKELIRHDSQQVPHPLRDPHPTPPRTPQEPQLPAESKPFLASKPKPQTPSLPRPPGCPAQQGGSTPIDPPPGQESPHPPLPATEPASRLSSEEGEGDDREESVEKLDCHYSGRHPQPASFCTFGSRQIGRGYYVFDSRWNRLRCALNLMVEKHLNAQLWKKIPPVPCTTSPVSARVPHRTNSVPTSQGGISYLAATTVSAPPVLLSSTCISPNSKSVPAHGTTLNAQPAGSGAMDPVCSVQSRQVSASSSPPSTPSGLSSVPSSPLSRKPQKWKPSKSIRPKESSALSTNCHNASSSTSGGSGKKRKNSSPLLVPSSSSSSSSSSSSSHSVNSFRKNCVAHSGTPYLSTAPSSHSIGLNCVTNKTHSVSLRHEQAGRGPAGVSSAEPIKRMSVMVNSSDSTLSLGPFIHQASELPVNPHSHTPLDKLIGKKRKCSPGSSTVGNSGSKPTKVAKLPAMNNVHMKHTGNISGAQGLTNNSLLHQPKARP
UniProt Q8R3H9: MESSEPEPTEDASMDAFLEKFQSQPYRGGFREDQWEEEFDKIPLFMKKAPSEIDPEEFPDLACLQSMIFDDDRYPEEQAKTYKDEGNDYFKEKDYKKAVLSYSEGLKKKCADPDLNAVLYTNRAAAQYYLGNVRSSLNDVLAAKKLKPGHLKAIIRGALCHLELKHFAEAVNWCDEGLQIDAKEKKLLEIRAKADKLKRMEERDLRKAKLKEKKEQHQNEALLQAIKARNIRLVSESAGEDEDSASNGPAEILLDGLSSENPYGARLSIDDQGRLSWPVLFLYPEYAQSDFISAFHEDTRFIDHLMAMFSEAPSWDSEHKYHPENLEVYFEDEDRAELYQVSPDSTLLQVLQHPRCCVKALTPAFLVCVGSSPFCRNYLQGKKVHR
UniProt Q8R2X8: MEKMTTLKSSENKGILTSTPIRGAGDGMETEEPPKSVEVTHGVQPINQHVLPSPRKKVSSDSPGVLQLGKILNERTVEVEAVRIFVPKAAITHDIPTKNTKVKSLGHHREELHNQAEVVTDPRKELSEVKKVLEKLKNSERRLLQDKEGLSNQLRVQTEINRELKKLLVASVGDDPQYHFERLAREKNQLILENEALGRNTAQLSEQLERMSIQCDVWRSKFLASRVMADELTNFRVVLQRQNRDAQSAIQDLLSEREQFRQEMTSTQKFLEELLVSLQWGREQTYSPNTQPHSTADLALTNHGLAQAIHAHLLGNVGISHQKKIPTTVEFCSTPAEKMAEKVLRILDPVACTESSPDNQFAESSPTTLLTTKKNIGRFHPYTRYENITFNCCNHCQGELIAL
UniProt Q8VDV8: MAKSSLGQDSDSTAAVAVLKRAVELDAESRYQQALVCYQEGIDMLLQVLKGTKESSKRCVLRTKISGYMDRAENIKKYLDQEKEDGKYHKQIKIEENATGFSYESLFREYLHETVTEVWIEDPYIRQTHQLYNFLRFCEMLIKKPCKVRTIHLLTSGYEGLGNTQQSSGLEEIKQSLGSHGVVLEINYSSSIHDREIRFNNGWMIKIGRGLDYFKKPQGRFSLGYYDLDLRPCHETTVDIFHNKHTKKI
UniProt Q8R2Y8: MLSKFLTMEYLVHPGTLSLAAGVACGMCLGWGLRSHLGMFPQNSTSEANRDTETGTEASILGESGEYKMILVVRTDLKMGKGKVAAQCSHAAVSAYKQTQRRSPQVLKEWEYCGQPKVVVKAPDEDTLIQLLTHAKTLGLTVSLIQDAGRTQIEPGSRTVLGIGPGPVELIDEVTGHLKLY
UniProt Q8VD31: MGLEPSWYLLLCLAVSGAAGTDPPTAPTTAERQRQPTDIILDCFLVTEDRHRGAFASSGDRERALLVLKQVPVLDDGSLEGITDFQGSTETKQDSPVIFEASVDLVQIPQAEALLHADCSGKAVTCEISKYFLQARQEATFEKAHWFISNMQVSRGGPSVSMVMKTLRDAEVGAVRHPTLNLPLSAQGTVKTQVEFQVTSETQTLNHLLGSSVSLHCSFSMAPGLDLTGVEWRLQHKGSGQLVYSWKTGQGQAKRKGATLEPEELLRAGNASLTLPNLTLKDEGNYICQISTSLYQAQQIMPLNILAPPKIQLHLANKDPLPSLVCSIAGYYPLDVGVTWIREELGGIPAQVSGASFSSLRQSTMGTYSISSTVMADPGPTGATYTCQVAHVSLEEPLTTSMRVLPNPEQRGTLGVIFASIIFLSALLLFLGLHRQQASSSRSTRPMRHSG

The other results are listed elsewhere or left out. Most values lie at the level of the controls, where differences are scatter.

Take “UniProt Q8R3P0 (peptide sequence: AGLDVKPFITNPR, peptide start residue: 43)”: the log2 fold change stood at 0.188. With “UniProt Q8VC49 (peptide sequence: EPQEPQELQK, peptide start residue: 238)”, the log2 fold change came to 0.0785. In the case of “UniProt Q8VDI7 (peptide sequence: ILVSLIEVAQK, peptide start residue: 155)”, the log2 fold change was found to be 0.129. The same measure for “UniProt Q8R2U6 (peptide sequence: MKFKPNQTR, peptide start residue: 1)”: 0.452; for “UniProt Q8VDP4 (peptide sequence: RLTPLHLEMQR, peptide start residue: 894)”: -0.122. For the target “UniProt Q8VE99 (peptide sequence: VEEGWLSLAK, peptide start residue: 35)”, the log2 fold change is -0.269. Turning to “UniProt Q8R464 (peptide sequence: EAFLNGGDGHK, peptide start residue: 371)”, the log2 fold change was -0.144. Turning to “UniProt Q8R5A6 (peptide sequence: STPKVPTTPVK, peptide start residue: 44)”, the log2 fold change was -0.447. “UniProt Q8VC74 (peptide sequence: DLSAAFCAK, peptide start residue: 317)”: the log2 fold change was -0.283. On to “UniProt Q8VCI5 (peptide sequence: YQQQHSVMVK, peptide start residue: 218)”, for which the log2 fold change was 0.256. On to “UniProt Q8VDY9 (peptide sequence: ENKQPEVLESK, peptide start residue: 215)”, for which the log2 fold change was -0.132. For the target “UniProt Q8R3N6 (peptide sequence: TGGEHVYFAK, peptide start residue: 291)”, the log2 fold change was determined as 0.319. For the target “UniProt Q8VCE4 (peptide sequence: QELQGCSR, peptide start residue: 68)”, the log2 fold change was -0.101.

In the case of “UniProt Q8VEG0 (peptide sequence: TVQAQASQTLIK, peptide start residue: 261)”, the log2 fold change came out at 0.205. Take “UniProt Q8VCL2 (peptide sequence: HWAGQGQR, peptide start residue: 34)”: the log2 fold change was found to be 0.161. On to “UniProt Q8VCM4 (peptide sequence: WYILCEKIR, peptide start residue: 362)”, for which the log2 fold change was determined as 0.393. On to “UniProt Q8R323 (peptide sequence: IEHQTITTPSKK, peptide start residue: 69)”, for which the log2 fold change is -0.104.

Consider “UniProt Q8VDV3 (peptide sequence: GSEFLKEELYK, peptide start residue: 76)”, for which the log2 fold change amounted to 0.517. Turning to “UniProt Q8R3I3 (peptide sequence: LENDKEMLEALK, peptide start residue: 47)”, the log2 fold change was -0.2.

With “UniProt Q8R5A3 (peptide sequence: ASGIYYVPK, peptide start residue: 339)”, the log2 fold change was -0.375. “UniProt Q8R326 (peptide sequence: HEHQLMLMR, peptide start residue: 312)”: the log2 fold change amounted to 0.56. The value for “UniProt Q8VCD7 (peptide sequence: EGADCIPLSHGHQAGK, peptide start residue: 481)” was -0.34.

On to “UniProt Q8R5G7 (peptide sequence: FGTMPLLPIR, peptide start residue: 1342)”, for which the log2 fold change is -0.407. Take “UniProt Q8R519 (peptide sequence: IAHGFNMRPDLCAQDNPSDPR, peptide start residue: 236)”: the log2 fold change is -0.15. For “UniProt Q8R4I1 (peptide sequence: HDSQQVPHPLRDPHPTPPR, peptide start residue: 387)”, the log2 fold change amounted to 0.0643.

As for “UniProt Q8R3H9 (peptide sequence: AVLSYSEGLK, peptide start residue: 98)”, the log2 fold change was -0.115. Turning to “UniProt Q8R3L5 (peptide sequence: SGELQGDEAQR, peptide start residue: 15)”, the log2 fold change came out at 0.0592. Turning to “UniProt Q8R2X8 (peptide sequence: NTAQLSEQLER, peptide start residue: 200)”, the log2 fold change stood at 0.421. On to “UniProt Q8VDV8 (peptide sequence: ISGYMDRAENIKK, peptide start residue: 65)”, for which the log2 fold change turned out to be 0.313. For the target “UniProt Q8R2Y8 (peptide sequence: SHLGMFPQNSTSEANR, peptide start residue: 35)”, the log2 fold change amounted to 0.12. For “UniProt Q8VD31 (peptide sequence: QRQPTDIILDCFLVTEDRHR, peptide start residue: 33)”, the log2 fold change is -0.247.
